PubChem BioAssay AID504774 – Drosophila RNAi Screening Center – 2011
Purpose: 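Fly genes whose loss alters survival after alkylation damage to DNA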 (primary screen). Cells: Drosophila Kc167 cells. Knock-down reagent: long dsRNA against Drosophila genes, about 0.25 µg dsRNA per well. Timing: about 6 days: 3 days knock-down, then 3 days with or without MMS. Challenge: methyl methanesulphonate 0.004% (w/v) for 3 days after knock-down. Detection: 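Viability in wells given MMS, read as ATP luminescence, normalised by quantiles plate by plate and averaged across replicates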. Reading the numbers: mean viability with MMS: higher = more surviving cells after MMS.
The screen tested about 23,000 reagents; this is an unselected part of those with a known target gene and a result. 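Values are quantile-normalised luminescence on an arbitrary scale; higher means more cells surviving MMS.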 A plus sign joins genes that one reagent is predicted to hit. Further read-outs or replicates are left out here.

no.	gene knocked down	dsRNA	mean viability with MMS
1	Sp1	DRSC17622	3.54e6
2	Sp1	DRSC18717	3.45e6
3	CSN3	DRSC11859	3.32e6
4	Ir48b	DRSC06320	3.34e6
5	clos	DRSC06240	3.45e6
6	clos	DRSC06241	3.48e6
7	clos	DRSC06778	3.44e6
8	clos	DRSC21857	3.45e6
9	clos	DRSC22942	3.53e6
10	Aven	DRSC19693	3.52e6
11	Or67d	DRSC10158	3.37e6
12	Mybbp1A	DRSC18788	3.53e6
13	CG33937 (retired record)	DRSC15148	3.50e6
14	MED28	DRSC15721	2.93e6
15	CG15125	DRSC06547	3.47e6
16	CG12607	DRSC08287	3.40e6
17	eEF1beta	DRSC07419	3.56e6
18	ena	DRSC05779	3.38e6
19	ena	DRSC07610	3.66e6
20	Spn42Dd	DRSC05024	3.53e6
21	Spn42Dd	DRSC22060	3.69e6
22	CG31010	DRSC14006	3.59e6
23	CG5339	DRSC04496	3.55e6
24	CG10343	DRSC02041	3.57e6
25	CG11584	DRSC19408	3.63e6
26	Ir94f	DRSC13621	3.59e6
27	Thor	DRSC00770	3.78e6
28	CG9095	DRSC20150	3.46e6
29	CG5390	DRSC02855	3.66e6
30	Pif1A	DRSC12708	3.35e6
31	Pif1A	DRSC14383	3.50e6
32	CG13318	DRSC14581	3.49e6
33	CG31515	DRSC13610	3.24e6
34	CG4440	DRSC02747	3.34e6
35	Sps1	DRSC07549	3.29e6
36	skl	DRSC10050	3.52e6
37	IntS12	DRSC15818	3.37e6
38	slim	DRSC06921	3.52e6
39	CG2993	DRSC14284	3.54e6
40	CG2993	DRSC15457	3.39e6
41	CG12241	DRSC14481	3.63e6
42	Obp50c + Obp50b	DRSC05482	3.48e6
43	CG6380	DRSC02950	3.56e6
44	CG9512	DRSC20189	3.65e6
45	CG32983	DRSC22367	3.51e6
46	CG14853	DRSC14977	3.71e6
47	CG14853	DRSC21528	3.48e6
48	CAH8	DRSC15784	3.44e6
49	fw	DRSC20334	3.59e6

An excerpt from the list above, as a working copy:
no.	gene knocked down	dsRNA	mean viability with MMS
15	CG15125	DRSC06547	3.47e6
16	CG12607	DRSC08287	3.40e6
17	eEF1beta	DRSC07419	3.56e6
18	ena	DRSC05779	3.38e6
19	ena	DRSC07610	3.66e6
20	Spn42Dd	DRSC05024	3.53e6
21	Spn42Dd	DRSC22060	3.69e6
22	CG31010	DRSC14006	3.59e6
23	CG5339	DRSC04496	3.55e6
24	CG10343	DRSC02041	3.57e6
25	CG11584	DRSC19408	3.63e6

The listing continues.
no.	gene knocked down	dsRNA	mean viability with MMS
50	CG13908 (retired record)	DRSC08378	3.46e6
51	Psa	DRSC08152	3.67e6
52	Nepl14	DRSC15631	3.68e6
53	CG32668	DRSC18879	3.36e6
54	CG15362	DRSC00392	3.49e6
55	mfr	DRSC10543	3.49e6
56	TkR99D	DRSC16881	3.52e6
57	CG4408	DRSC15574	3.56e6
58	CG9626	DRSC16525	3.62e6
59	CG11634	DRSC03700	3.56e6
60	UK114	DRSC01973	3.71e6
61	CG17298	DRSC15221	3.60e6
62	Ipk2	DRSC00357	3.62e6
63	eIF2alpha	DRSC20327	3.18e6
64	AsnRS-m	DRSC07010	3.61e6
65	plx	DRSC12260	3.54e6
66	plx	DRSC12385	3.73e6
67	plx	DRSC22683	3.39e6
68	Npc2d	DRSC14551	3.47e6
69	Cdc23	DRSC02708	3.13e6
70	CG43775	DRSC04206	3.66e6
71	Cht7	DRSC08538	3.42e6
72	Cht7	DRSC21783	3.33e6
73	ImpE3	DRSC16716	3.46e6
74	Karl	DRSC19883	3.59e6
75	BaraB	DRSC06420	3.60e6
76	Vps2	DRSC14886	3.36e6
77	CG2162	DRSC08557	3.25e6
78	D1	DRSC16638	3.67e6
79	CG17883	DRSC07838	3.55e6
80	gfzf	DRSC12506	3.16e6
81	gfzf	DRSC21874	2.96e6
82	UQCR-Q	DRSC10886	3.50e6
83	CG10445	DRSC14247	3.48e6
84	Ugt36D1	DRSC02600	3.53e6
85	Cpr76Bd	DRSC11063	3.49e6
86	wwk	DRSC01941	3.63e6
87	COX2 (retired record)	DRSC21276	3.49e6
